Data source: PubChem BioAssay AID504764 (Drosophila RNAi Screening Center, 2011)

- Aim: 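Genes whose knock-down alters Notch-dependent transcription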 (primary screen)
- Cell system: Drosophila Kc167 cells
- Knock-down reagent: long dsRNA against Drosophila genes
- Timing: about 5 days (4 days dsRNA, then 24 h after transfection)
- Challenge: transfection of constitutively active membrane-tethered Notch lacking the extracellular domain, read 24 h later
- Measured: 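Light from a Notch-responsive E(spl)m3 luciferase reporter under active Notch, with control-promoter and no-Notch reporter wells to normalise; raw counts from paired wells a and b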
- Scale: induced reporter light, run 1, well a and induced reporter light, run 1, well b: higher = more light from the Notch target reporter with active Notch; control promoter light, run 1, well a and control promoter light, run 1, well b: higher = more light from the viral control promoter (cell number, transfection, viability); uninduced reporter light, run 1, well a: higher = more light from the Notch target reporter without active Notch
- Rule for the call: 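Wells with low control signal or poorly matching duplicates excluded; duplicates averaged; per source plate, z beyond ±2 for induced/control log2 ratio or beyond ±1.8 for induced/uninduced marks a hit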
- Meaning of the calls: active = modifier hit (raised or lowered Notch signal); inactive = not a hit
In all, the deposit lists about 22,000 reagents; below is a random part of those with a known target gene and a result. Of all reagents, 403 (1.9%) are marked active. 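Unnormalised raw counts per well; ratio z-scores behind the hit calls and whether each hit raises or lowers signal are not deposited.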 Not given: the amount of reagent.

| induced reporter light, run 1, well a | induced reporter light, run 1, well b | control promoter light, run 1, well a | control promoter light, run 1, well b | uninduced reporter light, run 1, well a | call | gene knocked down | DRSC id |
| --- | --- | --- | --- | --- | --- | --- | --- |
| 1.49e5 | 1.80e5 | 1.82e5 | 1.77e5 | 8025 | inactive | GluRIA | DRSC11176 |
| 2.17e5 | 2.20e5 | 2.27e5 | 2.48e5 | 15640 | inactive | CG14861 | DRSC14984 |
| 85055 | 80260 | 1.41e5 | 1.36e5 | 8410 | inactive | sro | DRSC14469 |
| 16915 | 16778 | 23835 | 26710 | 1335 | inactive | mdlc | DRSC15690 |
| 99230 | 86035 | 84490 | 52015 | 8380 | inactive | Nup35 | DRSC19999 |
| 1.93e5 | 2.00e5 | 94455 | 1.04e5 | 18642 | active | CG42404 | DRSC15558 |

The list goes on (2 carried over from the part before).
| induced reporter light, run 1, well a | induced reporter light, run 1, well b | control promoter light, run 1, well a | control promoter light, run 1, well b | uninduced reporter light, run 1, well a | call | gene knocked down | DRSC id |
| --- | --- | --- | --- | --- | --- | --- | --- |
| 99230 | 86035 | 84490 | 52015 | 8380 | inactive | Nup35 | DRSC19999 |
| 1.93e5 | 2.00e5 | 94455 | 1.04e5 | 18642 | active | CG42404 | DRSC15558 |
| 20185 | 21580 | 18665 | 15285 | 1565 | inactive | noi | DRSC12383 |
| 1.38e5 | 1.42e5 | 1.56e5 | 1.72e5 | 11455 | inactive | CR15280 | DRSC01953 |
| 1.55e5 | 1.64e5 | 2.05e5 | 1.89e5 | 13135 | inactive | CG17121 | DRSC15176 |
| 1.19e5 | 1.28e5 | 1.65e5 | 1.90e5 | 8045 | inactive | fz3 | DRSC18779 |
| 1.06e5 | 1.30e5 | 96680 | 1.17e5 | 18615 | inactive | CG7203 | DRSC03026 |
| 1.50e5 | 1.63e5 | 1.92e5 | 2.31e5 | 11880 | inactive | AP-2mu | DRSC14090 |
| 1.35e5 | 1.23e5 | 1.12e5 | 1.19e5 | 10820 | inactive | Ctf4 | DRSC06380 |
| 1.26e5 | 1.54e5 | 70450 | 93825 | 17490 | inactive | rho-5 | DRSC02847 |
| 1.58e5 | 1.14e5 | 1.46e5 | 1.26e5 | 9130 | inactive | CG10031 | DRSC00286 |
| 1.74e5 | 1.59e5 | 1.01e5 | 1.25e5 | 13370 | inactive | CG18135 | DRSC10295 |
| 2.09e5 | 1.45e5 | 3.30e5 | 2.31e5 | 11875 | inactive | nab | DRSC08455 |
| 97790 | 1.09e5 | 1.42e5 | 2.18e5 | 10100 | inactive | nab | DRSC08456 |
| 1.95e5 | 2.84e5 | 1.96e5 | 1.79e5 | 15440 | inactive | CG2225 | DRSC03722 |
| 48015 | 39070 | 45970 | 46115 | 2765 | inactive | CG2225 | DRSC03723 |
